# Assay results published in PubChem BioAssay AID651599 (National Center for Advancing Translational Sciences (NCATS), 2012).
# Chains of the proteins cited; added tags and fusions are not shown. Lines headed by an entry give the natural chain unless they say otherwise; changes in a name come on top.
# UniProt Q99816: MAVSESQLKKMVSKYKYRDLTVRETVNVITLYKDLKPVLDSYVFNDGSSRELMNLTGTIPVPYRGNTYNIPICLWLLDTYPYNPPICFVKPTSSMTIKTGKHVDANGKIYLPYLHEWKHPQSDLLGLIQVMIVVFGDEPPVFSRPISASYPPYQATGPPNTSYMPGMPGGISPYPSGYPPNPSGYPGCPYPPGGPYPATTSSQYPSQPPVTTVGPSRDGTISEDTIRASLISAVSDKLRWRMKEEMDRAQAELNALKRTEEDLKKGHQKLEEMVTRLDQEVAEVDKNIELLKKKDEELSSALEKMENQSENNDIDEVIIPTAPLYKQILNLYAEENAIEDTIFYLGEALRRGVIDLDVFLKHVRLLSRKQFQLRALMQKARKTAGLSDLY
# The inconclusive results got no clear call from the source; some entries with a clear call stand among them for comparison. A potency beside an inconclusive call is a rough fit, not a confirmed value. The source made the active and inactive calls. The call rests on the fitted dose curve; in most records, active means well fitted inhibition curve with a large enough effect; inconclusive means small, poorly fitted or top-dose-only effect; inactive means no such curve, though single readings can be large or run the other way.
# Biological target: Tumor susceptibility gene 101 protein (Homo sapiens) (UniProt Q99816)
# Test: qHTS Assay for Iinhibitors of HIV-1 Budding by Blocking the Interaction of PTAP/TSG101: Hit Validation in TR assay
# Conditions: Tsg101 binding domain + Texas Red-labeled PTAP peptide, fluorescence polarization, 20 min; series mostly up to 57.5 µM
# In short: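 Texas Red-PTAP peptide (50 nM) binding to Tsg101 binding domain (10 uM), both final, in pH 7.5 HEPES buffer, read as polarization after 20 min at room temperature; compounds pinned before peptide addition.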
# Potency means the concentration at half of the fitted maximal effect.
row,Compound,Potency
1,CCN(CC)c1ccc2cc(S(=O)(=O)c3ccc(Cl)cc3)c(=O)oc2c1,inactive
2,COc1cc(OC)c(N(C)C(=O)c2sc3nc4n(c(=O)c3c2C)CCCC4)cc1Cl,"inconclusive: 0.0183 µM [inhibitor, full curve, poor fit]"
3,COC(=O)c1c(NC(=O)CC2Nc3cc(C)c(C)cc3NC2=O)sc(C)c1C (stereo unspecified),active: 2.91 µM
4,O=C(O)[C@@H]1[C@H]2C[C@H]3c4[nH]c5ccccc5c4CCN3C[C@@H]2CC[C@@H]1O,active: 13 µM
5,O=c1[nH]c(=O)n(-c2cc(Br)c(O)c(Br)c2)cc1Br,inactive
6,CC1CN(c2nc3ccccc3nc2C(C#N)C(=O)NCc2ccc3c(c2)OCO3)CC(C)O1 (stereo unspecified),"inconclusive: 46.1 µM [inhibitor, single point]"
7,COc1ccc(Br)cc1-c1nc(CCl)cs1,"inconclusive: 25.9 µM [inhibitor, partial curve, poor fit]"
8,Cc1ccc(C(=O)NN2C(=O)/C(=C/c3cn(C)c4ccccc34)SC2=S)cc1,"inconclusive: 32.6 µM [inhibitor, partial curve, poor fit]"
9,Cn1c(=O)c(N)c2c3c(c(Br)ccc31)C(=O)c1ccccc1-2,active: 18.3 µM
10,O=C1c2ccccc2-c2onc3ccc(N4CCCC4)c1c23,"inconclusive: 36.6 µM [inhibitor, partial curve, poor fit]"
11,CCOC(=O)C1=C(C)N=c2s/c(=C\c3cccn3C)c(=O)n2C1c1cccc(OC)c1OC (stereo unspecified),"inconclusive: 41.1 µM [inhibitor, partial curve, poor fit]"
12,c1ccc2c(c1)CCCN2Cc1nnnn1CC1CCCO1 (stereo unspecified),active: 18.3 µM
13,O=C(C1=C(O)C(=O)N(c2nccs2)C1c1ccccc1)c1cc2ccccc2o1 (stereo unspecified),"inconclusive: 41.1 µM [inhibitor, single point]"
14,COc1ccc2oc3ccccc3c(=O)c2c1,"inconclusive: 18.3 µM [inhibitor, partial curve, poor fit]"
15,Cc1cc2nc3c(=O)n(CCc4ccccc4)c(=O)[nH]c3nc2cc1N,inactive
16,C=CCOc1ccc(C2OC34CCCCC3C(C#N)(C#N)C2(C#N)C(=N)O4)cc1 (stereo unspecified),inactive

row,Compound,Potency
1,C=CCn1c(=O)[nH]c2nc3cc(N=CN(C)C)c(C)cc3nc2c1=O,active: 18.3 µM
2,CCN(CC)c1ccc2cc(C(=O)Nc3ccccn3)c(=O)oc2c1,"inconclusive: 46.1 µM [inhibitor, single point]"
3,c1ccc2[nH]c3cc4ncnc4cc3nc2c1,inactive
4,Cc1ccccc1-n1nc(C)c2c1N=C1C(Cl)=CC(Cl)=CN1C2c1ccc(C(=O)O)cc1 (stereo unspecified),"inconclusive: 11.6 µM [inhibitor, partial curve]"
5,N=c1c(S(=O)(=O)c2ccc(Cl)cc2)cc2c(=O)n3ccccc3nc2n1Cc1cccnc1,"inconclusive: 46.1 µM [inhibitor, single point]"
6,COc1cccc2c1C(=O)c1c(O)c3c(c(O)c1C2=O)C[C@@](O)(C(C)=O)C[C@@H]3O[C@H]1C[C@H](N)[C@H](O)[C@H](C)O1,active: 20.6 µM
7,Cn1c(-c2ccc(C=O)s2)nc2c3ccccc3c3ccccc3c21,"inconclusive: 46.1 µM [inhibitor, single point]"
8,N=c1c(S(=O)(=O)c2ccc(Br)cc2)cc2c(=O)n3ccccc3nc2n1Cc1ccccc1,inactive
9,COc1ccc(C2C(C(=O)c3cccs3)=C(O)C(=O)N2c2nncs2)cc1 (stereo unspecified),"inconclusive: 23.1 µM [inhibitor, partial curve, poor fit]"
10,CSc1ccc(C2C(C(=O)c3ccco3)=C(O)C(=O)N2c2nnc(SC)s2)cc1 (stereo unspecified),inactive
11,CCSC1=NSC2=NC(=O)/C(=C\c3coc4ccccc4c3=O)C(=N)N12,inactive
12,CCN(CC)C(=O)c1sc2nc(-c3cccs3)cc(-c3ccc(Cl)cc3)c2c1N,"inconclusive: 0.461 µM [inhibitor, full curve, poor fit]"
13,COc1ccc2nc3ccccc3nc2c1NC(=O)c1ccccc1Cl,"inconclusive: 0.0411 µM [inhibitor, full curve, poor fit]"
14,CCOC(=O)C(C(=O)OCC)c1cc(Br)c2noc3c2c1C(=O)c1ccccc1-3,"inconclusive: 18.3 µM [inhibitor, partial curve, poor fit]"
15,Cc1ccc2c(c1)-c1c(c(C(=O)N3CCN(c4cc(C)ccc4C)CC3)nn1C)CS2,"inconclusive: 0.0517 µM [inhibitor, full curve, poor fit]"

# A few values from above:
# Potency, Cn1c(=O)c(N)c2c3c(c(Br)ccc31)C(=O)c1ccccc1-2 reads active: 18.3 µM
# Potency, CCOC(=O)C(C(=O)OCC)c1cc(Br)c2noc3c2c1C(=O)c1ccccc1-3 reads inconclusive: 18.3 µM [inhibitor, partial curve, poor fit]
